Data taken from patent US20130243753A1 (Genentech, published 2013).
These are yes or no findings as the source states them, for the method shown. Some binding calls cover weakened binding; strength is not graded here.

Amino acid sequences for entries named in this document (tags omitted). A change or cut given only in a name is not applied to a line headed by its entry.
UniProt P30530: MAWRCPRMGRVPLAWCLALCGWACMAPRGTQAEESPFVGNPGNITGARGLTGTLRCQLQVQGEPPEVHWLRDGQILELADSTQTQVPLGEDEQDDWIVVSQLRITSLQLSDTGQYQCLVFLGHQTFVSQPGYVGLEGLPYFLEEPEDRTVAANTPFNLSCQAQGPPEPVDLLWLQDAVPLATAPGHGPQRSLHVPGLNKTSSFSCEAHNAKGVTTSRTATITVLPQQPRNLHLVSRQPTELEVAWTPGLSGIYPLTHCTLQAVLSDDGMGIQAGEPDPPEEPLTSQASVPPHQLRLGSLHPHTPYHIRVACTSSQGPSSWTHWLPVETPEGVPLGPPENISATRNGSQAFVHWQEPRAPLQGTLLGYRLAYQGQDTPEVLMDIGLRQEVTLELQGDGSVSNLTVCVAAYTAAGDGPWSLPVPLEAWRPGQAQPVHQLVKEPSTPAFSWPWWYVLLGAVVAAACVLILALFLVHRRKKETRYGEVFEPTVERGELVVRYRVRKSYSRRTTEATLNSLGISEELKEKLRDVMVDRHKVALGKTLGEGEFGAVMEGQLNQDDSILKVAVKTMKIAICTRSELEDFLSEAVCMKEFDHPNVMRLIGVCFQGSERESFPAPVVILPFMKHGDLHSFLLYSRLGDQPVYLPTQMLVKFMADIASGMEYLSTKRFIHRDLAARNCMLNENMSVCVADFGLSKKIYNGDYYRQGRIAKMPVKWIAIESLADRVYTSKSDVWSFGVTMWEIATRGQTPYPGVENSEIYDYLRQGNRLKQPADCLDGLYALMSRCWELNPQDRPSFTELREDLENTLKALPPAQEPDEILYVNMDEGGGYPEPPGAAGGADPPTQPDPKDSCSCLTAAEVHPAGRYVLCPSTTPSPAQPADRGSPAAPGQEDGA

Target: human Axl on the cell surface (HUVEC, A549, H1299, Baf3Axl cells) (human) (UniProt P30530)
Experiment: FACS on HUVEC; Gas6 on the cell surface detected with biotinylated anti-Gas6 and streptavidin-PE; Gas6 concentration not shown

- binding: binds
B1: Mouse recombinant Gas6 (ligand, UniProt Q61592 115-673, looked up)
chain: DQCTPNPCDKKGTHICQDLMGNFFCVCTDGWGGRLCDKDVNECVQKNGGCSQVCHNKPGSFQCACHSGFSLASDGQTCQDIDECTDSDTCGDARCKNLPGSYSCLCDEGYTYSSKEKTCQDVDECQQDRCEQTCVNSPGSYTCHCDGRGGLKLSPDMDTCEDILPCVPFSMAKSVKSLYLGRMFSGTPVIRLRFKRLQPTRLLAEFDFRTFDPEGVLFFAGGRSDSTWIVLGLRAGRLELQLRYNGVGRITSSGPTINHGMWQTISVEELERNLVIKVNKDAVMKIAVAGELFQLERGLYHLNLTVGGIPFKESELVQPINPRLDGCMRSWNWLNGEDSAIQETVKANTKMQCFSVTERGSFFPGNGFATYRLNYTRTSLDVGTETTWEVKVVARIRPATDTGVLLALVGDDDVVPISVALVDYHSTKKLKKQLVVLAVEDVALALMEIKVCDSQEHTVTVSLREGEATLEVDGTKGQSEVSTAQLQERLDTLKTHLQGSVHTYVGGLPEVSVISAPVTAFYRGCMTLEVNGKILDLDTASYKHSDITSHSCPPVEHAT
